From US9511052B2, “Mineralocorticoid receptor antagonists” (Merck Sharp & Dohme Corp., priority 2012, dated 2016)

By UniProt entry, the sequences of proteins in these tests, tags left out.
UniProt P08235, whole entry: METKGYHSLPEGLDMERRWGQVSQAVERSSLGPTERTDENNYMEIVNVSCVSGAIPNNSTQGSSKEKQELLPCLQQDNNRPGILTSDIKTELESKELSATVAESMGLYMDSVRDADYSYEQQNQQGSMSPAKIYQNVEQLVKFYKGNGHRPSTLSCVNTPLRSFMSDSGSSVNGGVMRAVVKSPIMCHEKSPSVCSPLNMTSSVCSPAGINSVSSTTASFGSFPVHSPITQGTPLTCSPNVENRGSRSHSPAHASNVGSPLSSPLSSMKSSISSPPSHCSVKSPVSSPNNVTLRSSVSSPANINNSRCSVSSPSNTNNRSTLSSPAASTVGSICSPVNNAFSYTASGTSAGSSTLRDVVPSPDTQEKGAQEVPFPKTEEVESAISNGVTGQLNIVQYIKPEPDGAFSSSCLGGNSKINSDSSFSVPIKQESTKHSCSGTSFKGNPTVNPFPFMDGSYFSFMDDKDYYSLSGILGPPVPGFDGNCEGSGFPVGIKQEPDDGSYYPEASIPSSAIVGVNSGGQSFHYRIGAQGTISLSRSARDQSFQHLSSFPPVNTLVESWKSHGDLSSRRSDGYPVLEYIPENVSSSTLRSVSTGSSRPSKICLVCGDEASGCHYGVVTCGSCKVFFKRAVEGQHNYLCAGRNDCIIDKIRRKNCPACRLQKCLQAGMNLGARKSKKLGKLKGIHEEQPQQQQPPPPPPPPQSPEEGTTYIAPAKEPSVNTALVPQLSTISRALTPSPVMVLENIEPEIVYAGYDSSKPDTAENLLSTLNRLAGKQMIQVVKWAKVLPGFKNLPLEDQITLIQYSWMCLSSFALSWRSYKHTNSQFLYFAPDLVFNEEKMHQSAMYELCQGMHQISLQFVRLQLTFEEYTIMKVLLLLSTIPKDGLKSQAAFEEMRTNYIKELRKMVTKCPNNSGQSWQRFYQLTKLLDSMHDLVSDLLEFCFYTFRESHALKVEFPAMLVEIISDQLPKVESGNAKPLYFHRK

Target: full-length human Mineralocorticoid Receptor (MR) (Homo sapiens, UniProt P08235)
Experiment: human MR NH Pro assay (PathHunter Protein:Protein interaction assay), MR antagonism
Settings: read-out: IP; IP = inflection point of the dose-response curve; CHO-K1 cells overexpressing human MR, aldosterone about 0.3 nM to about 1 nM, 6 hours at 37° C.
Text: The activity of the compounds of the present invention regarding mineralocorticoid receptor antagonism can be evaluated using the following assay.
Assessment of MR Potency in HMR NH Pro Assay
The human MR NH Pro assay is a commercially available PathHunter™ Protein:Protein interaction assay (DiscoveRx; http://www.discoverx.com/nhrs/prod-nhrs.php) that measures the ability of compounds to antagonize full-length human Mineralocorticoid Receptor (MR) binding to a coactivator peptide. […]
Compounds were assessed for MR antagonist activity by incubating the cells with a titrating dose of compound in F12K w/Glutamine and phenol red culture media (Invitrogen 11765-047) supplemented with 1% Charcoal/Dextran Treated FBS (Hyclone #SH30068.01) and aldosterone (0.3 nM to about 1 nM) for 6 hours at 37° C. Cells were then treated with DiscoveRx detection reagent for 1 hour at rt and read using an Envision luminescence plate reader. % activity was measured relative to cells treated with aldosterone alone and IC50 and IP values were calculated using ADA software. […]
2. Cells are collected with 0.05% trypsin and the cell suspension is spun and resuspended in a volume of F12+1.5% CD-FBS and counted. […]
8. Plates were read on Envision (PerkinElmer) luminesence plate reader and analyzed using ADA.

IC50: 0.343 µM
SMILES: CCC(c1ccc(C#N)cc1)(C(C)O)n1ncc2c(NS(C)(=O)=O)cccc21 (single isomer, unassigned)

The structures given here were assigned with low confidence; some may be wrong.
